Consider one molecule from article PMC3995069.

These are yes or no findings as the source states them, for the method shown. In cells and extracts the contact can be indirect. Some results given as binding are weak or reduced against the parent protein; the word gives no strength. Where a sequence is shown, tags or fusion partners need not be part of it.

The target in this experiment is T1, extracellularly FLAG-tagged Kir3.1 (UniProt P48549).
T1 sequence: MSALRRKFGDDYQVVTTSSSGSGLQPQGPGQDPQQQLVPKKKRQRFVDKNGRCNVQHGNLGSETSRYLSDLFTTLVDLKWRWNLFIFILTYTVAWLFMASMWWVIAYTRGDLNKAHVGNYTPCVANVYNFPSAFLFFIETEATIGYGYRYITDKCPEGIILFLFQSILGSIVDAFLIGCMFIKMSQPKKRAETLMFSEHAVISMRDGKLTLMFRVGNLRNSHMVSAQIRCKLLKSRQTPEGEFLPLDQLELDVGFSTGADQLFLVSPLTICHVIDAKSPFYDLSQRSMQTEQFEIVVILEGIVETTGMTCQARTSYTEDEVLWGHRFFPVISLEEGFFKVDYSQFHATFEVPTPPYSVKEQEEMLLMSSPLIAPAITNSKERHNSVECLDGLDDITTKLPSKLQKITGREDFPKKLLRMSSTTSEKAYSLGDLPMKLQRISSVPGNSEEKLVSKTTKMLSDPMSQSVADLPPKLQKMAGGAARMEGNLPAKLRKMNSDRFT
The experiment in a line: co-IP; FLAG-Kir3.1 precipitated with anti-FLAG M2 agarose from membranes solubilised in 0.5% dodecylmaltoside, overnight at 4°C, washed with 300 mM KCl, eluted with FLAG peptide; blot with anti-myc for Kir3.2; cells with control, Gβ1, Gβ4, Gβ4/Gγ2, Gγ2, Gγ4, Gγ5 or Gγ7 siRNA or overexpressed Gβ1 or HA-Gγ2; chase 0-48 h after a 30 min tetracycline pulse.

B1: Kir3.2-MYC (protein, UniProt P48051 1-423)
chain: MAKLTESMTNVLEGDSMDQDVESPVAIHQPKLPKQARDDLPRHISRDRTKRKIQRYVRKDGKCNVHHGNVRETYRYLTDIFTTLVDLKWRFNLLIFVMVYTVTWLFFGMIWWLIAYIRGDMDHIEDPSWTPCVTNLNGFVSAFLFSIETETTIGYGYRVITDKCPEGIILLLIQSVLGSIVNAFMVGCMFVKISQPKKRAETLVFSTHAVISMRDGKLCLMFRVGDLRNSHIVEASIRAKLIKSKQTSEGEFIPLNQTDINVGYYTGDDRLFLVSPLIISHEINQQSPFWEISKAQLPKEELEIVVILEGMVEATGMTCQARSSYITSEILWGYRFTPVLTLEDGFYEVDYNSFHETYETSTPSLSAKELAELASRAELPLSWSVSSKLNQHAELETEEEEKNLEEQTERNGDVANLENESKV
With B1, the binding result is on record as “binds”.
